We go through five molecules from US9394233B2, “ROS-activated compounds as selective anti-cancer therapeutics” (University of Cincinnati, priority 2012, dated 2016).

Structures are written as SMILES.

The test system of this series is MA9.3 AML cells. Briefly: AML cytotoxicity, MTT assay on MA9.3 AML cell line. In kind it is cell-based, human. The following applies: IC50 in CD34+ stem/progenitor cells relative to MA9.3 AML cells. An excerpt: To assess the anti-cancer activity against AML, transformed cells were compared to closely related, non-transformed counterparts. In the case of AML, the generally accepted non-transformed cell of origin is the human CD34+ blood stem/progenitor cell. Assessing potency against normal blood stem cells is important since, without selective cytotoxicity, an agent will yield reduced efficacy and therapeutic potential. […] Therefore, a comparison of current agents and the ROS-activated compounds disclosed herein was carried out. (FIG. 3). Cytotoxicity was measured via MTT assay on CD34+ blood stem/progenitor cells (grey lines) and on the MA9.3 AML cell line (black lines), which was derived from the transformation of human CD34+ cells by introduction of the leukemia oncogene MLL-AF9.
On the technique in general: Formazan colour is commonly taken as a measure of viable cells.

The molecule `N.N.[Cl][Pt][Cl]` [cisplatin] gave a therapeutic index of 1.0±0.2. Molecule `COc1cccc2c1C(=O)c1c(O)c3c(c(O)c1C2=O)C[C@@](O)(C(=O)CO)C[C@@H]3O[C@H]1C[C@H](N)[C@H](O)[C@H](C)O1` [doxorubicin] showed a therapeutic index of 0.9±0.2. Then `Nc1ccn([C@@H]2O[C@H](CO)[C@@H](O)[C@@H]2O)c(=O)n1` [ara-C, cytosine arabinoside], with 0.6±0.1.

In turn, `CN(CCCOc1ccc(O)cc1)c1ccccc1` [Compound 9, 4-(3-(methyl(phenyl)amino)propoxy)phenol] displayed a therapeutic index of 7.7±3. The molecule `O=C(O)CCCc1ccc(N(CCCl)CCCl)cc1` [chlorambucil] yielded a therapeutic index of 1.3±0.1.
